Data published in PMC8040806.
Results are given in words; binding and its absence hold for the method and conditions named. Some binding calls cover weakened binding; strength is not graded here.

By UniProt entry, the sequences of proteins in these tests, tags left out.
UniProt P33892: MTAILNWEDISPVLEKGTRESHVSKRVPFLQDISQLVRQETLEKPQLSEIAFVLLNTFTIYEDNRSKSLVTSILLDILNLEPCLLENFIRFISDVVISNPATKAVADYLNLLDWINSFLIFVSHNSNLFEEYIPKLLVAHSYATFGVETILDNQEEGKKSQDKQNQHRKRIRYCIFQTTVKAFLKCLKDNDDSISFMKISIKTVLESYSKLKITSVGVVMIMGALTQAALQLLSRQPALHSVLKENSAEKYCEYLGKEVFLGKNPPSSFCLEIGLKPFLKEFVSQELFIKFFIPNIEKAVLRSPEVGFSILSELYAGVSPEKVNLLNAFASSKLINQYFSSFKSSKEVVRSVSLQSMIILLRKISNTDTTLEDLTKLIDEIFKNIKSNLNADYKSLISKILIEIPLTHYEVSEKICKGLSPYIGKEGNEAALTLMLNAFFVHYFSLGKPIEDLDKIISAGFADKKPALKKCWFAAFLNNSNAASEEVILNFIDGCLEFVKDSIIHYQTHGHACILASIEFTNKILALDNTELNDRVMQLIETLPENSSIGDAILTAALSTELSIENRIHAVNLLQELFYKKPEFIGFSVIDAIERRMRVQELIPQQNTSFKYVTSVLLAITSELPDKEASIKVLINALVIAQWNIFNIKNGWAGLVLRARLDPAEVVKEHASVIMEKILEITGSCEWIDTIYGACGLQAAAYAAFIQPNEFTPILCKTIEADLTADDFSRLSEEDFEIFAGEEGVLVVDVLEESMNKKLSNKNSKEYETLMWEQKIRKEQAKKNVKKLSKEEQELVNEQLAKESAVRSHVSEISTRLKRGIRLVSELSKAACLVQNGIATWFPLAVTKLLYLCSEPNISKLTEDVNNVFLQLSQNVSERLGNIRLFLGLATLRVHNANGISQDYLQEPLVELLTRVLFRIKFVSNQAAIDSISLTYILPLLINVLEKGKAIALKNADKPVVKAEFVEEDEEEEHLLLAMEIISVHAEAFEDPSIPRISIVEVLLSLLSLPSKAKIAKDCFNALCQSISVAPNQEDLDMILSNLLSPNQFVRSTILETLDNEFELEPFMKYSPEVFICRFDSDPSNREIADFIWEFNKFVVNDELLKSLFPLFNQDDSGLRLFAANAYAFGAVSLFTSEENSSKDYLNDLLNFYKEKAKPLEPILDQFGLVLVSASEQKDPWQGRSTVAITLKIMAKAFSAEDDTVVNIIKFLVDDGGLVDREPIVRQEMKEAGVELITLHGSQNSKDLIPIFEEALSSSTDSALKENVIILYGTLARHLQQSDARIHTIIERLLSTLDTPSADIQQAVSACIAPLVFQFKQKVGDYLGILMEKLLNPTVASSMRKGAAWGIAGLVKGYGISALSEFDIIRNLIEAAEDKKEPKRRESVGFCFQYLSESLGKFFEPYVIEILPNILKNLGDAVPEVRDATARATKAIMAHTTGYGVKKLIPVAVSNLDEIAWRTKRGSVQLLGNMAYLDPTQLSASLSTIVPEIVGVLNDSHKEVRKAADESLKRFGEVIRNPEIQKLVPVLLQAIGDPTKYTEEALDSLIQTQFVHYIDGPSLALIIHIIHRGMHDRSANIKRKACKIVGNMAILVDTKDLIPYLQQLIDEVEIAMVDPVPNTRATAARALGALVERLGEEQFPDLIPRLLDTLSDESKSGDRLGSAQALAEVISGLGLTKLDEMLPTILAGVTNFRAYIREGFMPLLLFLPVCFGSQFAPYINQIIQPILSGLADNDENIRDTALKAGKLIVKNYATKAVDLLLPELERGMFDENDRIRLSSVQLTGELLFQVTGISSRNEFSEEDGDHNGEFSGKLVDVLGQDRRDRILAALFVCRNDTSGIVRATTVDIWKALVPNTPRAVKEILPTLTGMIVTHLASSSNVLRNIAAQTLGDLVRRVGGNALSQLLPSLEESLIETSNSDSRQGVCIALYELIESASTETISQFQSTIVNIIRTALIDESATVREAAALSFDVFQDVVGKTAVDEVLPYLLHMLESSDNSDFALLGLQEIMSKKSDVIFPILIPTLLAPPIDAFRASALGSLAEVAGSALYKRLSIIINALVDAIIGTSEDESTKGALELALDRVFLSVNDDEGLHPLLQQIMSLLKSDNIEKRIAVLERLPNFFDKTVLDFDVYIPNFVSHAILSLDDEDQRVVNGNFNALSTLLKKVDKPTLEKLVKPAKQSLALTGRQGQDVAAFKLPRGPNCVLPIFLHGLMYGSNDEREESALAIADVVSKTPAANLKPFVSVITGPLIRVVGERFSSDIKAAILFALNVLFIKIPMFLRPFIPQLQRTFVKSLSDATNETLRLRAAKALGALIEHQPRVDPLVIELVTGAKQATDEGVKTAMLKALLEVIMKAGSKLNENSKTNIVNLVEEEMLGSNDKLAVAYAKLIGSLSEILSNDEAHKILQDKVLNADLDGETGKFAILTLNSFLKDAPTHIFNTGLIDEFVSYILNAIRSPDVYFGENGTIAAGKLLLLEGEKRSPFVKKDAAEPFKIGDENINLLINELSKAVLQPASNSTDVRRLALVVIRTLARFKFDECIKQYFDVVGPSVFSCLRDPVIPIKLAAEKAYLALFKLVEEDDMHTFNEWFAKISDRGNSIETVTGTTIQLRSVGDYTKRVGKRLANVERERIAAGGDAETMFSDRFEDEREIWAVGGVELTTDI

Legend:
[1] = target: T1, ribosome binding GTPase 2 (Rbg2) (S. cerevisiae (endogenous in the GCN20-TAP strain)) (UniProt P53295); assay: cryo-EM structure; native Gcn20-TAP eluate (cells without 3-AT), cross-linked with 0.02% glutaraldehyde 20 min on ice, 0.01% DDM; Titan Krios 300 kV, Falcon II; focused refinement of the leading and the colliding ribosome of the Gcn1-disome
T1 sequence: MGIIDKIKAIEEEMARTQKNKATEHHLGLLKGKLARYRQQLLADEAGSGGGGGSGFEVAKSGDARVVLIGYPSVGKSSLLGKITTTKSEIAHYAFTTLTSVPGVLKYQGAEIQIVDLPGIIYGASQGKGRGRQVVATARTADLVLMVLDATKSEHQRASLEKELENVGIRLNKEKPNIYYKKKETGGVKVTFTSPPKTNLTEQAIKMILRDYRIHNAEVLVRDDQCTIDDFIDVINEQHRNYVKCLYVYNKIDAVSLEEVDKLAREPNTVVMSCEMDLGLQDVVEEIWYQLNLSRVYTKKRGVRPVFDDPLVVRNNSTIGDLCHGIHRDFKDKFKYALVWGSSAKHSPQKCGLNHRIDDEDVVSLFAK

[2] = target: Gcn1 (S. cerevisiae (endogenous in the GCN20-TAP strain)) (UniProt P33892); assay: as above

B1: Gir2 (Genetically interacts with ribosomal genes 2) (protein, UniProt Q03768 1-265)
chain: MDYKEEQKQELEVLESIYPDELRIINDEYPKIKFEVAIKLELDTGDSTSVLTKEHTIIAEFKLPENYPDEPCLISLEAQEVALNDNEEDNEEDEDEVEYDDHGNKVLKKFENLPDLISFKGYLPELTVQLESQIETDMLLGMQMCFALISSIKERCEQWYSEQLNKLEKQYELEAQEREKKEQAKFHGTKVTRESYLEWRSKFRQELKLDERDQVRRMKAHHGKLTGKQMFEQGVVGTGDEYMEEDDASVDDVAKGLAKTEIANQ
Which binding [1] does the source give for B1 here?
Its binding is “binds”.

And the binding [2]?
Its binding is “binds”.
